Test results: PubChem BioAssay AID1508600 (Functional Genomics Laboratory (NCATS/FGL), 2020)
Out of some 53,000 sequences screened, about 3,700 (7%) were called active.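 How the source made its calls: active means gene knockdowns whose robust z-score for IL-1 alpha signal is at least 2 or at most -2, so actives lie on both sides; inactive means the rest.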 This is one part of the list.

Experiment: Components of the Cytosolic LPS Sensing Pathway: Gene Identification via Genome-wide siRNA Screen;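 further: robust z of the log signal after scaling to non-targeting control siRNA wells of the plate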
Details: RAW264.7 macrophages, IL-1a HTRF, actives lie on both sides, screened at 100 nM (by protocol), cells primed 5 h with Pam3CSK4 first
Procedure, shortened: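 IL-1a HTRF of supernatants after 24 hour LipidA transfection of Pam3CSK4-primed (5 hours) RAW264.7 cells, 48h post-siRNA transfection (100 nM). Scores: percent of plate negative-control median, then log-based robust z-score.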

| Sequence | z-score |
| --- | --- |
| GAUCACAGUCACGAUAUAATT against Klk8 | inactive: 0.896 |
| GCUUGUGCGUCCUUUCUGUTT against Nmu | inactive: 0.642 |
| CCUUAUAAAAGCUACGAGGTT against Hsd3b7 | inactive: 0.175 |
| GCCAGUCACCAAUUCCAAATT against Eif2a | inactive: 1.1 |
| GCCCAAACGAAAAAUGGCCTT against Abl1 | active: 2.95 |
| GGAUGUGAAUCUGCGCAAUTT against Dpep3 | inactive: 1 |
| GGUUUGUGCCUUUAUAGUGTT against Ppm1h | inactive: 0.0286 |
| GGACAUAAGUGACAGACAUTT against Chrnb2 | inactive: -0.186 |
| GGAUUCAAACCUAAGUUUGTT against Map4 | inactive: 0.958 |
| CCUGCUCAUAAUUCUGUGUTT against Olfr855 | inactive: 0.309 |
| GGGAUAGGAAAAAGUAACATT against Tmem71 | inactive: -1.11 |
| CCCAUAUCCUGUAAAAUACTT against Usp7 | inactive: -0.477 |
| CGGUAACUGAGUCAGUUGUTT against Zbtb11os1 | inactive: -0.0331 |
| GGACUUAACUAGUUGACAATT against Pclaf | inactive: -1.06 |
| CCCAAGCCUUUAAACGGAGTT against Cbln3 | inactive: -0.587 |
| GCAAAACCGGCGUAUGAGATT against Snap47 | inactive: 0.472 |
| GGUAUACUUCAAAAGAAGGTT against H2-Q1 | inactive: 0.14 |
| GGAUAUCAAGAAGAGCCUGTT against Ptprr | inactive: -1.7 |
| GCCCAGUGUGCAAUUAAACTT against Uvrag | inactive: -1.18 |
| GGCCAAGAUCCAAGACAAGTT against Uba52 | inactive: -1.04 |
| CCAAACAUCAAGGAGUUUATT against Ero1b | inactive: 0.723 |
| GUGUGUGUGCAGUCCUCAUTT against Olfr1269 | inactive: -0.438 |

| Sequence | z-score |
| --- | --- |
| GGAAACGUAUGAACAAUAATT against Sema4f | inactive: 0.896 |
| CCAAAGAUCUCAAAUAAAGTT against Tlk2 | inactive: -0.468 |
| GGACUAUGCAGUUUUAUUGTT against Chrac1 | inactive: -0.201 |
| GCAAAUUCUCGGUGUCAAATT against Ezh2 | inactive: -1.04 |
| GGGUCAACUACUCACACUGTT against Crhr2 | inactive: 0.78 |
| GCCCUUACAGUUACCCUUGTT against Aldoc | inactive: 1.78 |
| GGCGAAUUAAUUAACCGCCTT against Abcb10 | inactive: 0.798 |
| CGGCUGAACAUGGAACAACTT against Gpc3 | inactive: -0.0864 |
| GGUCAUGGAAGAAGCAAAGTT against Sltm | active: 2.08 |
| CUAGCAGGGUCAGAAUGUUTT against Olfr331 | inactive: -1.2 |
| GGAAAAAUAUGAGUCUUCCTT against Serpinb2 | inactive: 0.621 |
| GGGACAAUACUUUCUUCUATT against Meig1 | inactive: 0.0935 |
| GCCAUUUCGUUCUCUGGGUTT against Olfr161 | inactive: -0.557 |
| GGUCUCACCAUCUUAACCCTT against Catsper1 | inactive: -1.15 |
| GGAUUUGGGUUAGAUCUUUTT against Cpeb3 | inactive: 0.862 |
| GGUAGAUGGCAUCUACUAUTT against Josd2 | inactive: 0.663 |
| GGAGAACAAAGUCCACACGTT against Lratd1 | inactive: 0.894 |
| GGAAAGUCUGUUUUUCACUTT against Adh5 | inactive: -0.45 |
| CCACCCGUUUUGUUGUACCTT against Dcaf17 | inactive: 0.258 |
| GCUUCAACAUGCUUUGUUUTT against A430010J10Rik | inactive: -0.555 |
| GGCUGAGGAGAUAACCAUATT against Nemp2 | inactive: -0.701 |
| GCCACUCUGAUUCUCUAGATT against Cdc25a | inactive: 1.26 |

| Sequence | z-score |
| --- | --- |
| GCUUAAAGCUGCCUAAAAATT against Mtres1 | inactive: 0.409 |
| GGUUUUCAAUGGAGAAGGATT against Ikzf2 | inactive: 0.717 |
| CCUAGCUACAGAACUGUGCTT against Snapin | inactive: -1.1 |
| GGAAGUAUCAAUACUUUCCTT against Pkdrej | inactive: -0.327 |
| GGGCAAGGGCAAGAAAUCUTT against H1f6 | inactive: -1.49 |
| GGUAACCGUGUUCUUAUGGTT against Fgf13 | inactive: -0.0872 |
| GGCUUUUGACCUCUUCGAUTT against Vav1 | inactive: -0.71 |
| GGCAAAUCUCAUGCAUAAUTT against Ahsg | inactive: 0.446 |
| GGAAUUGCACUUUUCCAAUTT against Phlda1 | inactive: 0.481 |
| GCUGCUUUCGUGUAGAAUGTT against Snapc1 | inactive: 0.803 |
| GGCAAGAGGUAUCAAGGUGTT against Ctsd | inactive: -1.05 |
| GGACAUUGCUAACUGCCUUTT against Snx16 | active: 2.37 |
| GGAGGUGCUAACCUAACAGTT against Ggh | inactive: -1.1 |
| GGUACAGAAUAUGUCACAGTT against Olfm3 | inactive: 0.627 |
| GGAGGAAUUCCAAUGUUACTT against Meltf | inactive: -0.271 |
| CCUGAAAACCAUGCAAUACTT against Tas2r125 | active: -2.37 |
| CCCUGAAUUGCAACCUAUUTT against Olfr867 | inactive: 0.371 |
| CUCUUCAACGAGUGUAAAATT against Klra7 | inactive: 0.562 |
| GGAGGAAAAGGCAAUCGUUTT against Mtg2 | inactive: 0.359 |
| GACCAUUAACUUGAUUUUGTT against Lsm8 | inactive: -0.587 |
| GGAACUUAUACAAAAAAGCTT against Spata6 | inactive: -0.262 |
| GCGACCAGCAGGUCAAAAUTT against Hoxd12 | active: 3.09 |

| Sequence | z-score |
| --- | --- |
| GGAGCUCAAGAACAGGAUGTT against Clec3b | inactive: -0.0394 |
| GGAGGCUUUUGUAAAAUCUTT against Me3 | inactive: 1.16 |
| GGAUCCUGACUCUCCUCUUTT against Fhl3 | inactive: -0.511 |
| GAUGCCUUUUUUGUAGGCATT against Olfr539 | inactive: -0.13 |
| CGAGGUGAAGGAUUACACCTT against Crispld2 | inactive: 0.263 |
| GCAGCAUCGCGUAGAAACATT against Gar1 | inactive: -0.566 |
| GGACAUUUUCUUUUCACGUTT against Nhlrc3 | inactive: -0.222 |
| GCCGGAAUCCUGUGGAAUCTT against Kat14 | active: 6.46 |
| GGUGUUUGAUGUGGUGAACTT against Ppwd1 | inactive: -0.964 |
| GGCCUGUGAUCAGAUGUACTT against Uqcc2 | inactive: -1.02 |
| GCGGCUUGCCAAGACAGUATT against Grpr | inactive: 1.34 |
| GGUGGCUGAAGAUGUGACUTT against Ttyh1 | active: -3.46 |
| GCUGUUGUUCAAUGCCCUGTT against Olfr392 | inactive: -0.616 |
| GGGCUUUAGCCUGAGCGAUTT against Gpc1 | inactive: -0.916 |
| GGUCACUCCCACUUCGUUATT against Rack1 | inactive: -1.3 |
| GGUCUUCAUGGUCAAAGUGTT against Fzd10 | active: 2.11 |
| GCCUGUUAUAUGUGGCCUUTT against Olfr1352 | inactive: 0.673 |
| GGAGAUUGUGCUGAAGUUUTT against Tmc3 | inactive: 1.08 |
| CGGCCAUUAACUCAUGCAATT against Slurp1 | inactive: -0.677 |
| CCCAGACUUAUUUCAUCACTT against Rgs12 | inactive: 1.07 |
| GGAGGAUUGUUUGAACCAATT against Myrip | inactive: 1.13 |
| GGAAAAUGGAAGAAAAGCATT against Ddhd1 | inactive: -1.18 |

| Sequence | z-score |
| --- | --- |
| GGGAUGAACAUUUUAGGUCTT against Slc1a4 | inactive: -0.607 |
| GCAAGUAGCAUCUCUGAUUTT against Nfs1 | inactive: 1.03 |
| GUUCAAACAGUUUUUCAGATT against Tas2r115 | inactive: -0.657 |
| GGGAGAAUUGGAAAGCAGUTT against Myb | inactive: -1.23 |
| GGAAAUAUGUUAUUUCCCATT against Acot12 | inactive: -0.309 |
| GGUGAUAACCCUGAACAUATT against Rps6kb1 | inactive: -0.545 |
| GGUGAUACCUCUGUCCUGGTT against Exosc5 | inactive: -1.17 |
| GGUGAAGUACAACUAUACUTT against Plxna1 | inactive: -0.653 |
| GGAGACAGGUGCUACAACUTT against Lin28a | inactive: -1.97 |
| GGCAAAAUCUAUUGUCUUCTT against Ran | active: -2.2 |
| GCUAGUCUACCCAAGUGACTT against Dennd6b | active: 4.35 |
| GGACUUCCUGACUAUCAUGTT against Tesc | inactive: 1.59 |
| GGCUUAUGUGCAUAAAAGUTT against Magoh | inactive: -0.372 |
| GCAGCUAGAGGAGUUUCUATT against Clu | inactive: 0.385 |
| GCCACGAGAAGUGAACCAATT against Smg7 | inactive: -1.64 |
| GGAUGAAACGGGUGCCUAUTT against Kctd5 | active: 3.33 |
| GGGUCAUGUAGGGAUAAAATT against Msrb3 | inactive: -1.53 |
| GGAAAAAUUCGAGGGACUGTT against Rcan2 | inactive: 1.12 |
| GGCGCAUGUUCACAAAGUGTT against Npc1 | inactive: 0.155 |
| GCAGAAGUGUCAAUAAAACTT against Synj2 | inactive: -0.0828 |

Quoted at random: five entries already listed.

| Sequence | z-score |
| --- | --- |
| GCAAGUAGCAUCUCUGAUUTT against Nfs1 | inactive: 1.03 |
| GCUAGUCUACCCAAGUGACTT against Dennd6b | active: 4.35 |
| GCCACGAGAAGUGAACCAATT against Smg7 | inactive: -1.64 |
| GGUGAUACCUCUGUCCUGGTT against Exosc5 | inactive: -1.17 |
| GGCGCAUGUUCACAAAGUGTT against Npc1 | inactive: 0.155 |
